Data source: PubChem BioAssay AID1224830 (NIAID, 2016)
In all, the deposit lists about 18,000 reagents; shown is an unselected part. About 2,900 of all reagents (16%) count as active. 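Calls are made per well; low scores hint the gene aids the LPS response, high scores that it dampens it.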 Unmarked entries are inactive. Repeated entries: four replicate wells of each siRNA pool.

Test: 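Host factors that control LPS-induced TNF expression in human macrophages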 (primary screen)
System: human THP-1 monocytic leukaemia cells, TNF dual-luciferase reporter clone, PMA-differentiated to macrophage-like cells
Reagents: siRNA pool against human genes, 50 nM
Time to read-out: LPS for 4 h, given about 3 days after siRNA transfection
Challenge: bacterial LPS (TLR4 ligand), 10 ng/ml
Detection: 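Ratio of firefly to renilla light, scaled to the plate median and expressed as a robust z-score per replicate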
Direction: TNF reporter robust z-score: higher = stronger TNF reporter response to LPS
Rule for the call: 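a well is active when its z-score exceeds 2.8 or falls below -1.5; control wells carry no call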

| Target gene | TNF reporter robust z-score |
| --- | --- |
| CDKN2AIP (CDKN2A interacting protein) | 0.14 |
| CDKN2AIP (CDKN2A interacting protein) | 1.08 |
| CDKN2AIP (CDKN2A interacting protein) | 1.05 |
| CDKN2AIP (CDKN2A interacting protein) | 0.97 |
| FSCN1 (fascin actin-bundling protein 1) | 0.85 |
| FSCN1 (fascin actin-bundling protein 1) | -0.48 |
| FSCN1 (fascin actin-bundling protein 1) | 1.28 |
| FSCN1 (fascin actin-bundling protein 1) | 0.52 |
| INO80 (INO80 complex ATPase subunit) | -1.16 |
| INO80 (INO80 complex ATPase subunit) | -0.94 |
| INO80 (INO80 complex ATPase subunit) | -0.17 |
| INO80 (INO80 complex ATPase subunit) | -1.18 |
| PSG1 (pregnancy specific beta-1-glycoprotein 1) | -1.66 (active) |
| PSG1 (pregnancy specific beta-1-glycoprotein 1) | 0.19 |
| PSG1 (pregnancy specific beta-1-glycoprotein 1) | -0.61 |
| PSG1 (pregnancy specific beta-1-glycoprotein 1) | -1.11 |
| ENTPD5 (ectonucleoside triphosphate diphosphohydrolase 5) | -0.56 |
| ENTPD5 (ectonucleoside triphosphate diphosphohydrolase 5) | -0.59 |
| ENTPD5 (ectonucleoside triphosphate diphosphohydrolase 5) | -1.38 |
| ENTPD5 (ectonucleoside triphosphate diphosphohydrolase 5) | -0.53 |
| CCDC158 (coiled-coil domain containing 158) | 0.29 |
| CCDC158 (coiled-coil domain containing 158) | 0.13 |
| CCDC158 (coiled-coil domain containing 158) | -0.15 |
| CCDC158 (coiled-coil domain containing 158) | -0.14 |
| AP1S1 (adaptor related protein complex 1 subunit sigma 1) | 1.03 |
| AP1S1 (adaptor related protein complex 1 subunit sigma 1) | 2.48 |
| AP1S1 (adaptor related protein complex 1 subunit sigma 1) | 0.46 |
| AP1S1 (adaptor related protein complex 1 subunit sigma 1) | 0.5 |
| CYP17A1 (cytochrome P450 family 17 subfamily A member 1) | 1.62 |
| CYP17A1 (cytochrome P450 family 17 subfamily A member 1) | -0.08 |
| CYP17A1 (cytochrome P450 family 17 subfamily A member 1) | -0.76 |
| CYP17A1 (cytochrome P450 family 17 subfamily A member 1) | 0.27 |
| KRT20 (keratin 20) | -1.35 |
| KRT20 (keratin 20) | -0.45 |
| KRT20 (keratin 20) | -0.81 |
| KRT20 (keratin 20) | 0.09 |
| THEM6 (thioesterase superfamily member 6) | -0.68 |
| THEM6 (thioesterase superfamily member 6) | 0.44 |
| THEM6 (thioesterase superfamily member 6) | 0.51 |
| THEM6 (thioesterase superfamily member 6) | -0.55 |
| FAM111A (FAM111 trypsin like peptidase A) | -0.2 |
| FAM111A (FAM111 trypsin like peptidase A) | -0.38 |
| FAM111A (FAM111 trypsin like peptidase A) | 0.71 |
| FAM111A (FAM111 trypsin like peptidase A) | 0.2 |

A stretch taken from the entries so far:
| Target gene | TNF reporter robust z-score |
| --- | --- |
| KRT20 (keratin 20) | -0.45 |
| KRT20 (keratin 20) | -0.81 |
| KRT20 (keratin 20) | 0.09 |
| THEM6 (thioesterase superfamily member 6) | -0.68 |
| THEM6 (thioesterase superfamily member 6) | 0.44 |
| THEM6 (thioesterase superfamily member 6) | 0.51 |
| THEM6 (thioesterase superfamily member 6) | -0.55 |

More reagents follow.
| Target gene | TNF reporter robust z-score |
| --- | --- |
| NAA10 (N-alpha-acetyltransferase 10, NatA catalytic subunit) | -0.03 |
| NAA10 (N-alpha-acetyltransferase 10, NatA catalytic subunit) | 0.34 |
| NAA10 (N-alpha-acetyltransferase 10, NatA catalytic subunit) | 0.11 |
| NAA10 (N-alpha-acetyltransferase 10, NatA catalytic subunit) | -1.01 |
| ASXL1 (ASXL transcriptional regulator 1) | 0.57 |
| ASXL1 (ASXL transcriptional regulator 1) | -0.36 |
| ASXL1 (ASXL transcriptional regulator 1) | 0.93 |
| ASXL1 (ASXL transcriptional regulator 1) | 1.36 |
| ATP1A1 (ATPase Na+/K+ transporting subunit alpha 1) | -0.34 |
| ATP1A1 (ATPase Na+/K+ transporting subunit alpha 1) | -1.45 |
| ATP1A1 (ATPase Na+/K+ transporting subunit alpha 1) | -0.76 |
| ATP1A1 (ATPase Na+/K+ transporting subunit alpha 1) | 0.4 |
| RORC (RAR related orphan receptor C) | 3.01 (active) |
| RORC (RAR related orphan receptor C) | 2.05 |
| RORC (RAR related orphan receptor C) | 3.5 (active) |
| RORC (RAR related orphan receptor C) | 2.63 |
| LRP3 (LDL receptor related protein 3) | -0.08 |
| LRP3 (LDL receptor related protein 3) | 1.14 |
| LRP3 (LDL receptor related protein 3) | 0.75 |
| LRP3 (LDL receptor related protein 3) | 0.86 |
| SLC25A21 | -1.03 |
| SLC25A21 | -0.92 |
| SLC25A21 | -0.82 |
| SLC25A21 | -0.74 |
| PRMT7 (protein arginine methyltransferase 7) | 0.5 |
| PRMT7 (protein arginine methyltransferase 7) | 0.61 |
| PRMT7 (protein arginine methyltransferase 7) | 0.89 |
| PRMT7 (protein arginine methyltransferase 7) | 1.4 |
| SNX22 (sorting nexin 22) | -0.02 |
| SNX22 (sorting nexin 22) | -0.24 |
| SNX22 (sorting nexin 22) | 0.56 |
| SNX22 (sorting nexin 22) | 0.24 |
